No constants are given. Whether binding was seen depends on the method and setting. Binding seen in cells or lysates may run through a third protein. Some results given as binding are weak or reduced against the parent protein; the word gives no strength.
Molecular target: T1, PBX1 (human (endogenous in human glomerular MCs)) (UniProt P40424)
T1 sequence: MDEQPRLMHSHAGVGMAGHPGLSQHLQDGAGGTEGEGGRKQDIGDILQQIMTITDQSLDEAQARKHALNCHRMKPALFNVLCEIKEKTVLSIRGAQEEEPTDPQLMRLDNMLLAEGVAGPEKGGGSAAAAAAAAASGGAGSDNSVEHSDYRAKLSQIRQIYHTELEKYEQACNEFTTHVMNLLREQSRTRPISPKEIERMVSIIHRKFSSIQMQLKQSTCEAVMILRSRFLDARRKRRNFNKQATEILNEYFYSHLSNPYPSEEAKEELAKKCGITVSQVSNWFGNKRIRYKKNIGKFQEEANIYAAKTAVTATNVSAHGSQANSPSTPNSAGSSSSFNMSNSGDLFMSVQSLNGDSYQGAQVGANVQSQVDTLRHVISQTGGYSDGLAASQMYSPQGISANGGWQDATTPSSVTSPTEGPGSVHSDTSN
Test: co-IP; endogenous PBX1 and TRIM21 in MCs stimulated with DNA-IC from SLE plasma (LN MCs) or IgG from healthy donors (HC MCs); also MCs with or without sodium L-lactate (30 mM, 1 day); detected by immunoblot

Chains of the proteins cited; added tags and fusions are not shown.
UniProt P19474: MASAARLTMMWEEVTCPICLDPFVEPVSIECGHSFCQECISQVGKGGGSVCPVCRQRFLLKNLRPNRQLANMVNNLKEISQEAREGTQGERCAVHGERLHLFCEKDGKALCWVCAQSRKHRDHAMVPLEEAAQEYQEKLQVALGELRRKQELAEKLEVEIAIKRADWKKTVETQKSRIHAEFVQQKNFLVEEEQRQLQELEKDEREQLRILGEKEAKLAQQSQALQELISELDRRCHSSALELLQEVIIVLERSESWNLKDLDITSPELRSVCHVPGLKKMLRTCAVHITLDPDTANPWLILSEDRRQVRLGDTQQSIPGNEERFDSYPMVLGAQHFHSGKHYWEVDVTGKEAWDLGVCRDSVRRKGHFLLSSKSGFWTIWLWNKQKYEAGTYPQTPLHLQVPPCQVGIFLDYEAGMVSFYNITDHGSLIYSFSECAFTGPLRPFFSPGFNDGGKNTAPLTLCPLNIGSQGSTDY

binding: binds
Substance: TRIM21 (from UniProt P19474 1-475) (enzyme)
